Reference: PubChem BioAssay AID504834 (National Center for Advancing Translational Sciences (NCATS), 2011)
About 22,000 (6.9%) of roughly 320,000 compounds were called active. Inconclusive means that the source gave no clear call. Such entries were picked first, then a sample of the others. The call rests on the fitted dose curve; in most records, active means well fitted inhibition curve with a large enough effect; inconclusive means small, poorly fitted or top-dose-only effect, or another doubt; inactive means no such curve, though single readings can be large or run the other way. Potencies of inconclusive entries are doubtful fits and often do not repeat.

assay: Primary qHTS for delayed death inhibitors of the malarial parasite plastid, 96 hour incubation; details: P. falciparum luciferase reporter growth; series mostly up to 28.7 µM; activity change, negative = inhibition: at the top concentration
Procedure, shortened: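 Delayed-death screen, second-generation endpoint: infected erythrocytes, 2% hematocrit, 0.05% parasitemia final; 96 hours at 37 C, 5% CO2; luciferase detection reagent; luminescence decrease equals reduced growth.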
On the % scale 0 is the no-effect control and ±100 the full control effect; potency means the concentration at half of the fitted maximal effect.

Compound	Potency	activity change, negative = inhibition
COc1ccc(C2(C)NC(=O)N(CC(=O)NC3CCCC3)C2=O)cc1OC (stereo not given)	inconclusive: 18.5 µM [inhibitor, partial curve, poor fit]	
C[C@]12CC[C@@H]3c4ccc(O)cc4CC[C@H]3[C@@H]1CCC2=O	active: 13.1 µM	
COc1cccc(C(=O)N2CCN(C(=O)C3COc4ccccc4O3)CC2)c1 (stereo not given)	inconclusive: 18.5 µM [inhibitor, single point]	
C=CCc1cccc(OC)c1OCCOCCn1ccnc1	inconclusive: 16.5 µM [inhibitor, single point]	
O=C(c1c(F)cccc1F)N1CCN(c2ccccc2F)CC1		inactive: -7.47%
Cc1nn(Cc2c(Cl)cccc2Cl)c(C)c1C(=O)NCc1ccc(C)n1C	inconclusive: 14.7 µM [inhibitor, partial curve, poor fit]	
CCOC(=O)N1CCN(C(=O)C2CCC(=O)N(CCCc3ccccc3)C2)CC1 (stereo not given)	inconclusive: 9.28 µM [inhibitor, partial curve, poor fit]	
CN1CCN(c2nc(-c3ccc(Cl)c(Cl)c3)nc3ccccc23)CC1	inconclusive: 18.5 µM [inhibitor, single point]	
CN(C)S(=O)(=O)n1cc(/C=C(\NC(=O)c2ccccc2F)C(=O)NCCCN2CCOCC2)c2ccccc21	inconclusive: 4.15 µM [inhibitor, partial curve, poor fit]	
COc1ccc(-n2c(SCC(=O)N/N=C(\C)c3cccnc3)nc3ccccc3c2=O)cc1	inconclusive: 14.7 µM [inhibitor, single point]	
CCC(C)C(=O)NCCc1ccc(S(N)(=O)=O)cc1 (stereo not given)	inconclusive: 6.57 µM [inhibitor, partial curve, poor fit]	
Cc1cccc(N2CCN(C(=O)c3ccc4c(c3)CCN4S(C)(=O)=O)CC2)c1C	inconclusive: 18.5 µM [inhibitor, single point]	
COc1ccc(C(CNC(=O)c2c(C)nn(Cc3ccccc3)c2Cl)N2CCOCC2)cc1 (stereo not given)	inconclusive: 14.7 µM [inhibitor, partial curve]	
Cc1cc(S(=O)(=O)Nc2ccc3c(c2)COC3=O)ccc1F	inconclusive: 18.5 µM [inhibitor, single point]	
Cc1ccc(NS(=O)(=O)Cc2ccccc2)cc1Cl	inconclusive: 9.28 µM [inhibitor, partial curve]	
Cc1ccc(C(=O)Nc2cccnc2)cc1S(=O)(=O)N1CCCCCC1	inconclusive: 16.5 µM [inhibitor, partial curve, poor fit]	
O=C(c1cnccn1)N1CCc2ccccc21	inconclusive: 0.117 µM [inhibitor, partial curve, poor fit]	
Cc1cccn2c(=O)c(C=O)c(Nc3ccc(S(N)(=O)=O)cc3)nc12	active: 5.86 µM	
CCOc1ccc(-n2c(SCC(=O)Nc3cc(OC)c([N+](=O)[O-])cc3C)nc3ccccc32)cc1	inconclusive: 14.7 µM [inhibitor, partial curve]	
COCCn1c(N)c(C(=O)c2cccc(S(=O)(=O)N3CCCCCC3)c2)c(=O)[nH]c1=O	inconclusive: 18.5 µM [inhibitor, single point]	

Compound	Potency	activity change, negative = inhibition
CN1CCN(C(c2ccc(C(F)(F)F)cc2)c2cc(Cl)c3cccnc3c2O)CC1 (stereo not given)	active: 3.7 µM	
COC(=O)Cc1cc(OC)c(OC)cc1S(=O)(=O)N(C)C		inactive: 10.9%
N#Cc1c(N2CCOCC2)nsc1-c1ccc(C(F)(F)F)cc1		inactive: 48.2%
CCc1ccc(N2C(=O)CN(Cc3sccc3C)C2=S)cc1	inconclusive: 18.5 µM [inhibitor, single point]	
CCCc1c(C)nn(C(=O)/C(C#N)=N/Nc2ccccc2[N+](=O)[O-])c1C	inconclusive: 2.33 µM [inhibitor, partial curve, poor fit]	
O=C(O)CCn1cc(-c2ccc(Cl)cc2)nc1-c1ccc(Cl)nc1	inconclusive: 18.5 µM [inhibitor, single point]	
CCOC(=O)C(CC)Sc1cc(C)nc2ccc(OC)cc12 (stereo not given)	inconclusive: 10.4 µM [inhibitor, single point]	
Cc1ccc(OCCOC(=O)c2cccc(S(=O)(=O)N3CC(C)OC(C)C3)c2)cc1 (stereo not given)	inconclusive: 9.28 µM [inhibitor, single point]	
COc1ccccc1N1CCN(C(=O)CCN2C(=O)c3cccc4cccc(c34)C2=O)CC1	inconclusive: 18.5 µM [inhibitor, single point]	
CC(=O)C(Sc1ccc2nnc(-c3ccc(C)cc3)n2n1)C(C)=O	inconclusive: 18.5 µM [inhibitor, single point]	
O=C(NCC(c1ccco1)N1CCc2ccccc2C1)C(=O)Nc1ccc(F)cc1F (stereo not given)	inconclusive: 18.5 µM [inhibitor, single point]	
CC(C)OCCCNC(=O)c1ccc(Br)cc1		inactive: 200%
COC(=O)c1ccc(NC(=O)C23CCC(C)(C(=O)O2)C3(C)C)cc1 (stereo not given)	inconclusive: 3.7 µM [inhibitor, single point]	
COCCCN(C(=O)c1cc(-c2ccco2)nc2ccccc12)c1c(N)n(Cc2ccccc2)c(=O)[nH]c1=O	inconclusive: 11.7 µM [inhibitor, single point]	
COc1ccccc1Nc1nc(-c2sc(NC(=O)c3ccco3)nc2C)cs1	active: 9.28 µM	
COc1cccc(OCCCn2cc(/C=C3/C(=N)N4C=C(C)SC4=NC3=O)c3ccccc32)c1	inconclusive: 4.15 µM [inhibitor, partial curve, poor fit]	
COc1ccc(NC(=O)c2ccc3ccccc3c2)cc1	inconclusive: 18.5 µM [inhibitor, single point]	
C=C(C)CSc1nnc([C@H](CCSC)NC(=O)OC(C)(C)C)o1	active: 10.4 µM	
C=CC[C@@H]1C=C[C@H](O/N=C/c2ccc(C(=O)N3[C@H](c4ccc(C)cc4)[C@@H](C)CC[C@H]3C(=O)OC)cc2)[C@@H](CO)O1	inconclusive: 18.5 µM [inhibitor, single point]	
CCOc1ccccc1NCc1nnc(-c2ccccc2)o1		inactive: 9.86%

Of the compounds above, 2 have a cyano group.
Compound	Potency	activity change, negative = inhibition
N#Cc1c(N2CCOCC2)nsc1-c1ccc(C(F)(F)F)cc1		inactive: 48.2%
CCCc1c(C)nn(C(=O)/C(C#N)=N/Nc2ccccc2[N+](=O)[O-])c1C	inconclusive: 2.33 µM [inhibitor, partial curve, poor fit]	
